Experimental data reported in PubChem BioAssay AID2685 (National Center for Advancing Translational Sciences (NCATS), 2010).
Some of the results follow. These are further read-outs of the screen, such as a control signal, another cell line or another target. No call is given for them. Compounds called inactive in the main read-out are mostly missing here. The note in brackets gives the kind of curve behind each potency; many fits are weak.

Assay: qHTS Assay for Lipid Storage Modulators in Drosophila S3 Cells;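 as to cell number change: cells counted by Cell Tracker Red CMTPX staining in the red channel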
Conditions: BODIPY lipid droplet fluorescence, 18-24 h; for cell number change: measured here: cell count max response, cells fed with added oleic acid
Procedure, shortened: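 Laser-scanning cytometry quantifies lipid droplet accumulation (500–530 nm total intensity; droplet/cell object ratio) in oleic acid-fed (400 uM added) Drosophila S3 cells treated with a concentration series. 20 uM Triacsin C defined 100% inhibition.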

[1] = measured here: lipid fluorescence (Fed channel) AC50, cells fed with added oleic acid
[2] = measured here: cell number channel AC50, cells fed with added oleic acid

Compound | AC50 [1] | cell number change [%] | AC50 [2]
COc1cc([N+](=O)[O-])cc(/C=N/NC(=O)CSc2ccccn2)c1O | 4.11 µM [rising, single point] | – | –
Cc1ccc(-n2ncc3c(=O)n(CC(=O)Nc4cccc(Cl)c4)cnc32)cc1C | 29.1 µM [falling, single point] | -12.9 | –
O=C(COC(=O)C1CC(O)CN1S(=O)(=O)c1ccc(Cl)cc1)c1ccccc1Cl (configuration not stated) | 20.6 µM [rising, partial curve] | – | –
COc1ccccc1N1CCN(c2cnccn2)CC1 | – | 26.6 | 6.51 µM [rising, single point]
COc1cccc(-c2cnc(NCc3cc(Cl)ccc3O)n2C)c1 | 4.11 µM [falling, single point] | 5.52 | 5.8 µM [falling, single point]
COc1ccc(Cl)cc1NC(=O)CN(C)C(=O)CCc1nc2ccccc2c(=O)[nH]1 | 2.59 µM [falling, partial curve] | -24.7 | –
O=C(CCN1C(=O)[C@@H]2Cc3ccccc3CN2C1=O)NCc1ccccc1Cl | 5.17 µM [rising, single point] | 11.8 | –
COc1cc(NC(=O)c2cccs2)c(OC)cc1NC(=O)CCn1nnc2ccccc21 | 0.164 µM [rising, full curve, poor fit] | -26 | 0.231 µM [falling, full curve, poor fit]
NS(=O)(=O)c1ccc(-n2nncc2C23CC4CC(CC(C4)C2)C3)cc1 | – | 1.69 | –
O=[N+]([O-])c1ccc(N2CCN(CCO)CC2)cc1Sc1ccccn1 | – | -32 | 0.00461 µM [falling, full curve, poor fit]
Cc1ccccc1-n1nc(C)c2cc(C(=O)N3CCN(S(=O)(=O)c4ccc(F)cc4)CC3)sc21 | 6.51 µM [rising, single point] | – | –
COC(=O)c1ccc(Oc2nc(NC(C)(C)C)nc(N3CCOCC3)n2)cc1 | 0.116 µM [falling, full curve, poor fit] | – | –
CCCCNc1c([N+](=O)[O-])ncn1C | 6.51 µM [falling, single point] | 0.359 | –
O=C(Nc1cccc(F)c1)Nc1ccnn1C1CCN(C(=O)c2ccccn2)CC1 | 29.1 µM [falling, single point] | -10.5 | –
CCOC(=O)c1c(NC(=O)C2CCCO2)sc(C(=O)OC(C)(C)C)c1C (configuration not stated) | 5.8 µM [rising, partial curve, poor fit] | 19.8 | –
O=C(c1cccc(S(=O)(=O)N2CCCC2)c1)N1CCN(Cc2ccccc2)CC1 | 4.61 µM [falling, single point] | -1.82 | –
O=C(NC1CCCCCCC1)c1cccc(S(=O)(=O)N2CCOCC2)c1 | 29.1 µM [rising, single point] | – | –
Cc1cc(SCC(=O)NC2CCCC2)nc2ccccc12 | 29.1 µM [rising, partial curve] | 21.7 | –
COc1ccccc1/C=C/C(=O)OCC(=O)Nc1ccccc1Sc1ccccc1 | 2.91 µM [rising, full curve, poor fit] | – | –
Cc1ccc(C(=O)NCc2ccc(N3CCN(C)CC3)cc2)cc1C | 29.1 µM [rising, single point] | 4.23 | –

Compound | AC50 [1] | cell number change [%] | AC50 [2]
CC1CCCCN1C(=O)COc1ccc2ccc(=O)oc2c1 (configuration not stated) | 0.00461 µM [falling, full curve, poor fit] | – | –
COc1ccc(NC(=O)CN(C)C(=O)c2cn(-c3ccccc3)nc2-c2ccc(Cl)cc2)cc1 | – | -15.4 | –
Nc1ccc(C(=O)O)cc1 | – | 16 | –
Cc1ccc(C(=O)Nc2ccc(C)c(S(=O)(=O)Nc3ccccc3Cl)c2)s1 | – | – | 6.51 µM [rising, single point]
CN(CC(=O)Nc1cc(S(=O)(=O)N2CCCC2)ccc1Cl)Cc1cccs1 | – | 15.9 | –
Cc1cc(C)cc(NC(=O)C2CCCC2)c1 | – | 10 | –
NS(=O)(=O)c1cc(C(=O)N=Nc2c(O)[nH]c3ccccc23)ccc1Cl | 0.92 µM [falling, partial curve, poor fit] | -59.6 | 0.00461 µM [falling, full curve, poor fit]
Cc1ccccc1NC(=S)NC(=O)Cc1ccc(Cl)cc1 | – | -37.3 | 10.3 µM [falling, partial curve]
Cc1ccccc1C(=O)Nc1cccc(C#N)c1 | 8.2 µM [rising, partial curve, poor fit] | 12.6 | –
O=S(=O)(c1ccccc1)N1CCN(C(=S)Nc2ccccc2)CC1 | – | 32.4 | –
Cc1nn(CC(=O)NN)c(C)c1Br | 6.51 µM [falling, single point] | 13.3 | –
O=C(Nc1nc2ccccc2s1)c1cc2c(s1)-c1ccccc1OC2 | 0.326 µM [rising, full curve] | -7.55 | 0.184 µM [rising, full curve]
O=C(Cc1c(F)cccc1Cl)Nc1ccc(S(=O)(=O)N2CCCC2)cc1 | – | 16.7 | –
Cc1ccc(S(=O)(=O)N2CCN(S(=O)(=O)c3ccc4c(c3)OCCO4)CC2)cc1 | 20.6 µM [falling, partial curve, poor fit] | -6.33 | –
COc1ccc(CNC(=O)CSc2nc(C)cs2)cc1 | 3.26 µM [falling, full curve, poor fit] | -9.74 | –
Cc1ccc(-n2cc(CCCCCCCCC(=O)O)nn2)cc1 | – | 12.9 | –
COc1ccc(CCNC(=O)c2noc(C(C)C)c2[N+](=O)[O-])cc1OC | 29.1 µM [falling, single point] | -42.5 | 13 µM [falling, partial curve, poor fit]
CCn1cc2nc(SCC(=O)Nc3ccc(OC)cc3OC)n(Cc3ccc(OC)cc3)c(=O)c2n1 | – | 214 | 23.1 µM [rising, partial curve]
CC(=O)Oc1ccc2c(=O)c(-c3ccccc3)coc2c1 | 0.461 µM [rising, single point] | 1.94 | –
COc1ccc(OC)c(CNC(=O)C2CCCN(c3ncnc4c3nc3n4CCCCC3)C2)c1 (configuration not stated) | 1.84 µM [falling, partial curve, poor fit] | – | –

16 entries from above in a different format:
Compound,AC50 [1],cell number change [%],AC50 [2]
Cc1ccc(-n2ncc3c(=O)n(CC(=O)Nc4cccc(Cl)c4)cnc32)cc1C,"29.1 µM [falling, single point]",-12.9,–
COc1ccc(Cl)cc1NC(=O)CN(C)C(=O)CCc1nc2ccccc2c(=O)[nH]1,"2.59 µM [falling, partial curve]",-24.7,–
O=C(CCN1C(=O)[C@@H]2Cc3ccccc3CN2C1=O)NCc1ccccc1Cl,"5.17 µM [rising, single point]",11.8,–
O=[N+]([O-])c1ccc(N2CCN(CCO)CC2)cc1Sc1ccccn1,–,-32,"0.00461 µM [falling, full curve, poor fit]"
COC(=O)c1ccc(Oc2nc(NC(C)(C)C)nc(N3CCOCC3)n2)cc1,"0.116 µM [falling, full curve, poor fit]",–,–
COc1ccccc1/C=C/C(=O)OCC(=O)Nc1ccccc1Sc1ccccc1,"2.91 µM [rising, full curve, poor fit]",–,–
CC1CCCCN1C(=O)COc1ccc2ccc(=O)oc2c1 (configuration not stated),"0.00461 µM [falling, full curve, poor fit]",–,–
COc1ccc(NC(=O)CN(C)C(=O)c2cn(-c3ccccc3)nc2-c2ccc(Cl)cc2)cc1,–,-15.4,–
Nc1ccc(C(=O)O)cc1,–,16,–
Cc1ccc(C(=O)Nc2ccc(C)c(S(=O)(=O)Nc3ccccc3Cl)c2)s1,–,–,"6.51 µM [rising, single point]"
Cc1ccccc1C(=O)Nc1cccc(C#N)c1,"8.2 µM [rising, partial curve, poor fit]",12.6,–
O=S(=O)(c1ccccc1)N1CCN(C(=S)Nc2ccccc2)CC1,–,32.4,–
Cc1nn(CC(=O)NN)c(C)c1Br,"6.51 µM [falling, single point]",13.3,–
Cc1ccc(S(=O)(=O)N2CCN(S(=O)(=O)c3ccc4c(c3)OCCO4)CC2)cc1,"20.6 µM [falling, partial curve, poor fit]",-6.33,–
Cc1ccc(-n2cc(CCCCCCCCC(=O)O)nn2)cc1,–,12.9,–
COc1ccc(OC)c(CNC(=O)C2CCCN(c3ncnc4c3nc3n4CCCCC3)C2)c1 (configuration not stated),"1.84 µM [falling, partial curve, poor fit]",–,–

(listing goes on)

Compound | AC50 [1] | cell number change [%] | AC50 [2]
CCOC(=O)c1c(C)[nH]c(C(=O)OCC(=O)NCc2ccc(F)cc2)c1C | – | -48.1 | 11.6 µM [falling, partial curve]
CCOC(=O)CC1C(=O)NCCN1Cc1cccs1 (configuration not stated) | 6.51 µM [falling, single point] | 29.7 | 1.84 µM [falling, single point]
COc1ccc(-c2csc(NC(=O)c3cccs3)c2C(=O)O)cc1OC | – | – | 6.51 µM [falling, single point]
CN(CC(=O)Nc1ccc(F)cc1)CC(=O)N1CCCCCC1 | 0.651 µM [falling, partial curve, poor fit] | -11.3 | –
COC(=O)c1ccc(C(=O)OC)c(-n2c(=O)c3ccccc3c3ccccc3c2=O)c1 | 20.6 µM [falling, single point] | -34 | 20.6 µM [falling, single point]
Cc1ccc(C(=O)CN2C(=O)NC3(CCCCC3C)C2=O)s1 (configuration not stated) | 4.11 µM [falling, full curve] | -18.9 | –
O=c1oc2ccccc2c(Nc2cccc(O)c2)c1[N+](=O)[O-] | 0.206 µM [falling, full curve, poor fit] | 0.809 | –
CC(=O)Nc1ccc(S(=O)(=O)NCC2CCC(C(=O)NCCCN3CCCC3=O)CC2)cc1 (configuration not stated) | 16.4 µM [falling, single point] | -23.9 | –
COc1ccc(-n2nc(C(=O)NCC(=O)NCCCN3CCN(C)CC3)c3ccccc3c2=O)cc1OC | 5.62 µM [falling, single point] | 48.7 | –
CCc1ccc(OCC(=O)NNC(=O)c2nn(CC)c(=O)c3ccccc23)cc1 | – | 23.6 | 0.411 µM [rising, full curve, poor fit]
CCOc1nc(-c2ccc(OC)cc2)ccc1-c1noc(-c2ccncc2)n1 | 23.1 µM [rising, partial curve] | 9.71 | 6.51 µM [rising, single point]
Cc1ccc(N2C(=O)SC(N(CC(=O)O)c3cccc(C)c3)C2=O)cc1 (configuration not stated) | 0.82 µM [falling, full curve, poor fit] | -11.9 | –
O=C(O)c1ccccc1C(=O)c1cccs1 | 20.6 µM [falling, single point] | -8.45 | –
COc1ccc(-n2c(=S)[nH]c3cc(C(=O)NCc4ccco4)ccc3c2=O)cc1OC | – | 37.6 | –
C/C(=N\NC(=O)c1ccc(O)cc1)c1ccc2c(c1)OCCO2 | 6.51 µM [falling, single point] | 17.8 | –
CC1(C)CC(=O)C2=C(C1)N(Cc1cccnc1)C(=O)C2(NC(=O)c1cccnc1)C(F)(F)F (configuration not stated) | 6.51 µM [rising, single point] | 11.6 | –
COc1cccc(NC(=O)C(=O)c2cn(CC(=O)N3CCOCC3)c3ccccc23)c1 | 29.1 µM [rising, single point] | 32.7 | 29.1 µM [rising, single point]
NC(=O)COc1ccc(C2c3c(oc4ccccc4c3=O)C(=O)N2CC2CCCO2)cc1 (configuration not stated) | 29.1 µM [rising, single point] | 10.6 | –
O=C(c1ccco1)N1CCN(Cc2cccnc2)CC1 | 29.1 µM [rising, single point] | 45.5 | 29.1 µM [rising, single point]
CCN(CC(N)=O)S(=O)(=O)c1ccc(Br)cc1 | 29.1 µM [falling, single point] | -144 | 11.6 µM [falling, partial curve]

As entered above:
Under cell number change [%], CC(=O)Nc1ccc(S(=O)(=O)NCC2CCC(C(=O)NCCCN3CCCC3=O)CC2)cc1 (configuration not stated) is listed with -23.9
Under AC50 [1], COc1cccc(NC(=O)C(=O)c2cn(CC(=O)N3CCOCC3)c3ccccc23)c1 is listed with 29.1 µM [rising, single point]
